Laboratory results: paper PMC6465271
Results are given in words; binding and its absence hold for the method and conditions named. Binding seen in cells or lysates may run through a third protein. Some entries that bind do so weakly or less than the wild type. Tags and fused reporters may be left off the sequences shown. Blank lines part the entries; values can stand above or below the binder they belong to.

Experiments:
[1] = target: T1, QUIRKY (QKY), full-length, FLAG-tagged (QKY-FLAG) (Arabidopsis) (UniProt B8XCH5); test: co-IP; total protein extracts from Nicotiana benthamiana leaves transiently transformed with SCM-MYC and QKY-FLAG; buffer 50 mM Tris pH 7.5, 150 mM NaCl, 1% Triton X-100, protease inhibitor cocktail; 1 mg of total proteins; EZview Red ANTI-FLAG M2 Affinity Gel named in the methods
T1 sequence: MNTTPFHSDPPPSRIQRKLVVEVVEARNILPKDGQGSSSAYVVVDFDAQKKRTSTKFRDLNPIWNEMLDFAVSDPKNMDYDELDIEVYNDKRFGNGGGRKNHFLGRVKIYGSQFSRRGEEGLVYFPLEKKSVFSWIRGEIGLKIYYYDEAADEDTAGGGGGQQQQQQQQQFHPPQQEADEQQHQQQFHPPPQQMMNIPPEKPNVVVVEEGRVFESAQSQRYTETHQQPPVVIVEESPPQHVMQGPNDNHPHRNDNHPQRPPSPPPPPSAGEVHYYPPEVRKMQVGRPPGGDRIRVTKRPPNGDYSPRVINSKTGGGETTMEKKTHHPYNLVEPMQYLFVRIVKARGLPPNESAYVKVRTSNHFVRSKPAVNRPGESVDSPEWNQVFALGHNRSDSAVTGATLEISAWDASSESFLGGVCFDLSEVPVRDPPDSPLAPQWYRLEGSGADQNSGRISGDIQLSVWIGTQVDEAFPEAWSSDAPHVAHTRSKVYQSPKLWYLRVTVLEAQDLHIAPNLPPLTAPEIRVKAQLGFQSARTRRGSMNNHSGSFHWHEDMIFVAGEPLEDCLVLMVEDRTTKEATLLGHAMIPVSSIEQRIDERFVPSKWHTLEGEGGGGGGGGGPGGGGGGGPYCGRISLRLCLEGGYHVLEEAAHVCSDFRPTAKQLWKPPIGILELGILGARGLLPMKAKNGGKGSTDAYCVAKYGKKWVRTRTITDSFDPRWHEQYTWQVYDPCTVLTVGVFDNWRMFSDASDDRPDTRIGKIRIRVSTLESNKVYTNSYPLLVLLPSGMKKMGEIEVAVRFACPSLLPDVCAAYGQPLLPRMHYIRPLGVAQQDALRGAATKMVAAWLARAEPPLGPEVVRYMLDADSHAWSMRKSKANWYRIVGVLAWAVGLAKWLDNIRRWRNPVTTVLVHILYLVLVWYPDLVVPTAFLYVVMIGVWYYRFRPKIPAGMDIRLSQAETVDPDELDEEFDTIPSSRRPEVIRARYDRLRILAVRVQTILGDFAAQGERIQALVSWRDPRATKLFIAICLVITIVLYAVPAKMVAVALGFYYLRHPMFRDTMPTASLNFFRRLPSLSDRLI

[2] = target: T2, QKY-EYFPc-V1 (C-terminal half of EYFP at the end of the N-terminus of QKY) (Arabidopsis) (UniProt B8XCH5); test: split reporter; BiFC with EYFPn on SCM and EYFPc on QKY, coexpressed under the 35S promoter in Nicotiana benthamiana leaf epidermal cells; confocal microscopy
T2 sequence: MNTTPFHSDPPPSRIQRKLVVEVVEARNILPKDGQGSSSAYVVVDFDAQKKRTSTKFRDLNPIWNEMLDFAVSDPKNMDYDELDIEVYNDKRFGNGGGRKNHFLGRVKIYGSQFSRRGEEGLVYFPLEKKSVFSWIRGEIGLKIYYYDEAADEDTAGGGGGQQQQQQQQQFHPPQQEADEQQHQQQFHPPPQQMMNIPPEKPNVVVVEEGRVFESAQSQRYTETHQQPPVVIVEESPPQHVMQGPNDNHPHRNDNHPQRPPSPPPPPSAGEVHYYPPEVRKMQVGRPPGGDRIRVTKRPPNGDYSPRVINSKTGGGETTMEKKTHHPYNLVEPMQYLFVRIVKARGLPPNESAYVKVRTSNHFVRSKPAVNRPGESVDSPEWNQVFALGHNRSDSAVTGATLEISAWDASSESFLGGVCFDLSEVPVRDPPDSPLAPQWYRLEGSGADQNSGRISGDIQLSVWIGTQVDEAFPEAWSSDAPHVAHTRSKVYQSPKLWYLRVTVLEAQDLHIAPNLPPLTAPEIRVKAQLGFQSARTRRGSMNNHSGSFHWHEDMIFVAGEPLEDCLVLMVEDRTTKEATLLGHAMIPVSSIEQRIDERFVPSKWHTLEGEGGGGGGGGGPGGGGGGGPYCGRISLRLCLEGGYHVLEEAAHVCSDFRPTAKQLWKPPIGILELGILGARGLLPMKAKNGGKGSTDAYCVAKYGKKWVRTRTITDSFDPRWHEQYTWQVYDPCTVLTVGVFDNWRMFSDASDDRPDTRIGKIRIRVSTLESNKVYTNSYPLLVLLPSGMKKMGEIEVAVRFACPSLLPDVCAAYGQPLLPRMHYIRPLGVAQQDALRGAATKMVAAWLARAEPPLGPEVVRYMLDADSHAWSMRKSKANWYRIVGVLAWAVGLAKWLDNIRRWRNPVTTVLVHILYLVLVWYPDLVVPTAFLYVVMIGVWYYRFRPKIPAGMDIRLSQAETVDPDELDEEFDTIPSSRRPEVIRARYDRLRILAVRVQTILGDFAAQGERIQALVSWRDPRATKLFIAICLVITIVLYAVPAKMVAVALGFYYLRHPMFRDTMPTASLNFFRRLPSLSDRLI

[3] = target: T3, QKY-EYFPc-V3 (EYFPc at the end of the C-terminus of QKY) (Arabidopsis) (UniProt B8XCH5); test: as above
T3 sequence: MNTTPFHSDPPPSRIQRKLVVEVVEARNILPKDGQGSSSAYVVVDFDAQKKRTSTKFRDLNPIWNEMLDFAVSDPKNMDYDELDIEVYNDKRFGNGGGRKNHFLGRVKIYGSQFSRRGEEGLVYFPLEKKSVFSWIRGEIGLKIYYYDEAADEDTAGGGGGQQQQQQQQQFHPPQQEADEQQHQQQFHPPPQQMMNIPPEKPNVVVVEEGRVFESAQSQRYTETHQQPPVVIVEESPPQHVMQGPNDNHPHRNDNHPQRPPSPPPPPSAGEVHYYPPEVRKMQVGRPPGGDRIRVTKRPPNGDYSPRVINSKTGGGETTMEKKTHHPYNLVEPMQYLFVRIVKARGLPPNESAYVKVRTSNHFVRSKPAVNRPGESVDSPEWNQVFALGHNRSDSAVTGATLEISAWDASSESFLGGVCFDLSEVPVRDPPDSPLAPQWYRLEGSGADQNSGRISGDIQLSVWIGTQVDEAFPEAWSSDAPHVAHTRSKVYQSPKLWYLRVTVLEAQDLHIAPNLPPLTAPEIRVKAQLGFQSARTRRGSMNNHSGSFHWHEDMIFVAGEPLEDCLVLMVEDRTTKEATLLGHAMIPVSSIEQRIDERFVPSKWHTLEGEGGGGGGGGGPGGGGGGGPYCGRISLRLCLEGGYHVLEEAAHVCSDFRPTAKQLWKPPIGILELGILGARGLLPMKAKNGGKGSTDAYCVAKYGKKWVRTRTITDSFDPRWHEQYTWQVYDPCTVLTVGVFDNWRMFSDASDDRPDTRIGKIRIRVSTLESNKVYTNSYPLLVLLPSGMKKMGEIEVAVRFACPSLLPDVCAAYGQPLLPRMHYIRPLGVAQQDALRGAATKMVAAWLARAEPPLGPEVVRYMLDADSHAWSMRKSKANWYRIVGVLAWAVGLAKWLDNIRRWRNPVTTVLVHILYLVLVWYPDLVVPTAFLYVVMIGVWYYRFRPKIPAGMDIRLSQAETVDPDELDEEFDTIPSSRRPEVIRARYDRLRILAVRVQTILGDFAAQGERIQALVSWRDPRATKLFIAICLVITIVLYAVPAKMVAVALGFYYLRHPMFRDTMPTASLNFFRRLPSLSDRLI

[4] = target: T4, QKY-EYFPc-V2 (EYFPc between the end of the first transmembrane domain and the beginning of the PRT domain of QKY) (Arabidopsis) (UniProt B8XCH5); test: as above
T4 sequence: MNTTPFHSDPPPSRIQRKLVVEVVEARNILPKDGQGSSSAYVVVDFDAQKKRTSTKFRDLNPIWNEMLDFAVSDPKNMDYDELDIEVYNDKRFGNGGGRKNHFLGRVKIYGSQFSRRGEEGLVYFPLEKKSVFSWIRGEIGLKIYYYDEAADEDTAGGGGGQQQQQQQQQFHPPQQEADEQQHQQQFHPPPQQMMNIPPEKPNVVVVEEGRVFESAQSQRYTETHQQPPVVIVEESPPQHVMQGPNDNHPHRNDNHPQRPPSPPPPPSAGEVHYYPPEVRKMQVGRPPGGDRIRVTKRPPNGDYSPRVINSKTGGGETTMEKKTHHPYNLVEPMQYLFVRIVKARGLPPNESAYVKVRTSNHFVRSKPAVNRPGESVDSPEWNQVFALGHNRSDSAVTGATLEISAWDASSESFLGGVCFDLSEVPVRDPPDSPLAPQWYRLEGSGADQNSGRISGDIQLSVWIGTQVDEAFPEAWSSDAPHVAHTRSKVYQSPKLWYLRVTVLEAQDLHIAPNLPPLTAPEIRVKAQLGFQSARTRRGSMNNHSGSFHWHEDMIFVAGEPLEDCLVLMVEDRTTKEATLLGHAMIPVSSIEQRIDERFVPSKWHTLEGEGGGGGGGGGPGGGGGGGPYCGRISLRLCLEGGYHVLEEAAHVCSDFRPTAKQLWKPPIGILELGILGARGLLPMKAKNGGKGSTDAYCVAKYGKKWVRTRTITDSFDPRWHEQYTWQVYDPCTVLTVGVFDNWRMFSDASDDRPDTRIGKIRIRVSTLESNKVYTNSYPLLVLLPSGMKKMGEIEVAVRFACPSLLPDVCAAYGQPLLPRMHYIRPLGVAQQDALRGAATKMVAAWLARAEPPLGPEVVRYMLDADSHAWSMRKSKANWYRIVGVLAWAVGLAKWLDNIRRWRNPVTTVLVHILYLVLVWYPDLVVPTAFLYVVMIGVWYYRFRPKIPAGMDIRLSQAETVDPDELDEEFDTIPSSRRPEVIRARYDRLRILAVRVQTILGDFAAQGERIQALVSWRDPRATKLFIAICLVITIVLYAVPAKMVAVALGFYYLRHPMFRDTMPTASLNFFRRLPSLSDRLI

binding [1]: binds
B1: SCRAMBLED (SCM), full-length, MYC-tagged (SCM-MYC) (receptor, UniProt Q8RWZ1 25-768)
chain: VTNLRDVSAINNLYITLGAPSLHHWLAFGGDPCGEKWQGVVCDSSNITEIRIPGMKVGGGLSDTLADFSSIQVMDFSSNHISGTIPQALPSSIRNLSLSSNRFTGNIPFTLSFLSDLSELSLGSNLLSGEIPDYFQQLSKLTKLDLSSNILEGHLPSSMGDLASLKILYLQDNKLTGTLDVIEDLFLTDLNVENNLFSGPIPPNLLKIPNFKKDGTPFNTSIITPPPPPVVDPPPATHRAPPVPRIPPVSGVPPAPFAPFAPLQPQQHPPPSPPLVWSPPSSDNGGGDPWNSVSGQPTLQISPPSGSGSGKFWSTQRIILVVSSVAIIVLVSGLCVTLWRCCRSKIYNRYYSGARKDLQRPYFNKPPSQPTPTMGKVSREPMVKPFDGYGAGDRKYGYPMPQRAEESRRAMPPTSYYNKDVNTPQKPLQQPPRQFQSNDTASKRAAHFPPGLNSSSSATVFTIASLQQYTNNFSEENIIGEGSIGNVYRAELRHGKFLAVKKLSNTINRTQSDGEFLNLVSNVLKLKRGHILELLGYCNEFGQRLLVYEYCPNGSLQDALHLDRKLHKKLTWNVRINIALGASKALQFLHEVCQPPVVHQNFKSSKVLLDGKLSVRVADSGLAYMLPPRPTSQMAGYAAPEVEYGSYTCQSDVFSLGVVMLELLTGRRPFDRTRPRGHQTLAQWAIPRLHDIDALTRMVDPSLHGAYPMKSLSRFADIISRSLQMEPGFRPPISEIVQDLQHMI

binding [2]: binds
binding [3]: binds
B2: SCM-EYFPn-V1 (EYFPn fused to the N-terminus of SCM) (receptor, UniProt Q8RWZ1 25-768)
chain: VTNLRDVSAINNLYITLGAPSLHHWLAFGGDPCGEKWQGVVCDSSNITEIRIPGMKVGGGLSDTLADFSSIQVMDFSSNHISGTIPQALPSSIRNLSLSSNRFTGNIPFTLSFLSDLSELSLGSNLLSGEIPDYFQQLSKLTKLDLSSNILEGHLPSSMGDLASLKILYLQDNKLTGTLDVIEDLFLTDLNVENNLFSGPIPPNLLKIPNFKKDGTPFNTSIITPPPPPVVDPPPATHRAPPVPRIPPVSGVPPAPFAPFAPLQPQQHPPPSPPLVWSPPSSDNGGGDPWNSVSGQPTLQISPPSGSGSGKFWSTQRIILVVSSVAIIVLVSGLCVTLWRCCRSKIYNRYYSGARKDLQRPYFNKPPSQPTPTMGKVSREPMVKPFDGYGAGDRKYGYPMPQRAEESRRAMPPTSYYNKDVNTPQKPLQQPPRQFQSNDTASKRAAHFPPGLNSSSSATVFTIASLQQYTNNFSEENIIGEGSIGNVYRAELRHGKFLAVKKLSNTINRTQSDGEFLNLVSNVLKLKRGHILELLGYCNEFGQRLLVYEYCPNGSLQDALHLDRKLHKKLTWNVRINIALGASKALQFLHEVCQPPVVHQNFKSSKVLLDGKLSVRVADSGLAYMLPPRPTSQMAGYAAPEVEYGSYTCQSDVFSLGVVMLELLTGRRPFDRTRPRGHQTLAQWAIPRLHDIDALTRMVDPSLHGAYPMKSLSRFADIISRSLQMEPGFRPPISEIVQDLQHMI

binding [4]: binds
B3: SCM-EYFPn-V2 (N-terminal half of EYFP fused to the C-terminus of SCM) (receptor, UniProt Q8RWZ1 25-768)
chain: VTNLRDVSAINNLYITLGAPSLHHWLAFGGDPCGEKWQGVVCDSSNITEIRIPGMKVGGGLSDTLADFSSIQVMDFSSNHISGTIPQALPSSIRNLSLSSNRFTGNIPFTLSFLSDLSELSLGSNLLSGEIPDYFQQLSKLTKLDLSSNILEGHLPSSMGDLASLKILYLQDNKLTGTLDVIEDLFLTDLNVENNLFSGPIPPNLLKIPNFKKDGTPFNTSIITPPPPPVVDPPPATHRAPPVPRIPPVSGVPPAPFAPFAPLQPQQHPPPSPPLVWSPPSSDNGGGDPWNSVSGQPTLQISPPSGSGSGKFWSTQRIILVVSSVAIIVLVSGLCVTLWRCCRSKIYNRYYSGARKDLQRPYFNKPPSQPTPTMGKVSREPMVKPFDGYGAGDRKYGYPMPQRAEESRRAMPPTSYYNKDVNTPQKPLQQPPRQFQSNDTASKRAAHFPPGLNSSSSATVFTIASLQQYTNNFSEENIIGEGSIGNVYRAELRHGKFLAVKKLSNTINRTQSDGEFLNLVSNVLKLKRGHILELLGYCNEFGQRLLVYEYCPNGSLQDALHLDRKLHKKLTWNVRINIALGASKALQFLHEVCQPPVVHQNFKSSKVLLDGKLSVRVADSGLAYMLPPRPTSQMAGYAAPEVEYGSYTCQSDVFSLGVVMLELLTGRRPFDRTRPRGHQTLAQWAIPRLHDIDALTRMVDPSLHGAYPMKSLSRFADIISRSLQMEPGFRPPISEIVQDLQHMI
